This assay concerns the target MACC1ΔSH3-GFP (MACC1 with deleted SH3-domain, C-terminal GFP) (human) (UniProt Q6ZN28). Kind of assay: co-IP; IP (pull-down) of MACC1 or its GFP-tagged variants from lysates of SW620, SW480/MACC1, SW480/MACC1-GFP and SW480 deletion-variant cells; CoIP lysing buffer (20 mM Tris–HCl pH 7.5, 150 mM NaCl, 0.1% NP40, 1 mM EDTA, 1% Triton X 100), antibody over night at 4 °C, protein-G Sepharose; Western blot. Background: In western blotting, separated proteins are transferred to a membrane and probed.

Chains of the proteins cited; added tags and fusions are not shown. Lines headed by an entry give the natural chain unless they say otherwise; changes in a name come on top.
UniProt Q6ZN28: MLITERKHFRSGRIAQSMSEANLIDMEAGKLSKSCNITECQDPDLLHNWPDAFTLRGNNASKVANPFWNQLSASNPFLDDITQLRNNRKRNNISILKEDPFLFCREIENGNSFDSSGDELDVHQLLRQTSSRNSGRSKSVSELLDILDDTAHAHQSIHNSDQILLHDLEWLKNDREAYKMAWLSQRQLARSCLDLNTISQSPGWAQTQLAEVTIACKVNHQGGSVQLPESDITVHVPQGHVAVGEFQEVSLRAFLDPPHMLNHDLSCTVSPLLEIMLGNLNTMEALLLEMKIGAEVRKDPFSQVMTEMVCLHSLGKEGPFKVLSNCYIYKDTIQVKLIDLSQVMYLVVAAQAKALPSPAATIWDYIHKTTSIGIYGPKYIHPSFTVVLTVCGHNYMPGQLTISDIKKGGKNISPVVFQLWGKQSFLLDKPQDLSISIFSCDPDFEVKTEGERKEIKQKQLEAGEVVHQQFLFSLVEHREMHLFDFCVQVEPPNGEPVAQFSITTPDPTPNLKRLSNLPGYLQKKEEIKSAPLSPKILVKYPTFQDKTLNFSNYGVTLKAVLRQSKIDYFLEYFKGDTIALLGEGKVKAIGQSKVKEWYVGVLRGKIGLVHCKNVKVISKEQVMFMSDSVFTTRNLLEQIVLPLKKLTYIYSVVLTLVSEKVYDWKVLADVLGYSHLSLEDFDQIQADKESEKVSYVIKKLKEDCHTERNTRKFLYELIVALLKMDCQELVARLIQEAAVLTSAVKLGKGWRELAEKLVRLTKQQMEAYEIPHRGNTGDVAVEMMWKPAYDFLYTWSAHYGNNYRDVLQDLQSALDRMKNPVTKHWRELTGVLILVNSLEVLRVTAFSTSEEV
UniProt Q00610: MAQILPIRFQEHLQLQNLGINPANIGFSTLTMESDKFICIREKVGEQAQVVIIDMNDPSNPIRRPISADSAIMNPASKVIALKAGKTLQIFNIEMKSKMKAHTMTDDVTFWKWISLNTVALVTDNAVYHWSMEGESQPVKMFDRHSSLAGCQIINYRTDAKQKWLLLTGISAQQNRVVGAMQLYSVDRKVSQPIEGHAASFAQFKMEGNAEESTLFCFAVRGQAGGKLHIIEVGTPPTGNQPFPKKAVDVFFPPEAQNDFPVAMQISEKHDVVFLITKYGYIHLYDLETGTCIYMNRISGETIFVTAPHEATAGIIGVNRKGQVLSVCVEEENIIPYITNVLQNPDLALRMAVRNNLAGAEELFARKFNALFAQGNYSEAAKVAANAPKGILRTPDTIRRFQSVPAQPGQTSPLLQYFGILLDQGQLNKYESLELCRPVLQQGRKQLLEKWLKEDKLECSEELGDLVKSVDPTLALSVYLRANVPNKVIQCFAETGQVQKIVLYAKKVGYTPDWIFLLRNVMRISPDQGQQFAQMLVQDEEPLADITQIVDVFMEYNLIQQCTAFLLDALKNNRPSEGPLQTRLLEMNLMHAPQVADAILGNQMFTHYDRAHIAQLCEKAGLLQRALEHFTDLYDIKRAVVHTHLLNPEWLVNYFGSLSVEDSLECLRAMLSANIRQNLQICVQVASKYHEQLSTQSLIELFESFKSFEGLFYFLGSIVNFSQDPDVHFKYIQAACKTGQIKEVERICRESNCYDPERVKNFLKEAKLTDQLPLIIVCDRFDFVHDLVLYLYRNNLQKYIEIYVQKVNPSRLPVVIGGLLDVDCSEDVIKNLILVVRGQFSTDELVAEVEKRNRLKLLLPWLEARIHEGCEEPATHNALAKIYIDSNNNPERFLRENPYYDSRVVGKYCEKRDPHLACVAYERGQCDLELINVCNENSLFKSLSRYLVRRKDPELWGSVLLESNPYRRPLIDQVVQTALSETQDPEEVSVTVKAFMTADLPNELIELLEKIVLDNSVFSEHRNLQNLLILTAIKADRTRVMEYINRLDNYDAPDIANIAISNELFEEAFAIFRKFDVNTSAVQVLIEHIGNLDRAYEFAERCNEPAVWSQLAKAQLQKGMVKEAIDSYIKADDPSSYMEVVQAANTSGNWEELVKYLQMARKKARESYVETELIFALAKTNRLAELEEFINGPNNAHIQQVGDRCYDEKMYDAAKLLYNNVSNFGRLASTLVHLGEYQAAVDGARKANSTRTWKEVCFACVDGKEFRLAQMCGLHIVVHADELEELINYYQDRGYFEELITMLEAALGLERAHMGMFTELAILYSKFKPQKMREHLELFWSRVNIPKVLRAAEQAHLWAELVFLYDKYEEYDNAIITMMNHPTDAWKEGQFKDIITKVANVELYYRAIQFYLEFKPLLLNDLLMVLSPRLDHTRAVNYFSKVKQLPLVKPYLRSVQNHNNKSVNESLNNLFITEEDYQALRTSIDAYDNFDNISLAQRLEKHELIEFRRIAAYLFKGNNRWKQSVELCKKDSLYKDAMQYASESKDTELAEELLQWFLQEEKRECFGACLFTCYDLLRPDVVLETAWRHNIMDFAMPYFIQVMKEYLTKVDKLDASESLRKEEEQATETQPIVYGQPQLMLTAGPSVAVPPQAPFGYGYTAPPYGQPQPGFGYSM

These are yes or no findings as the source states them, for the method shown. In cells and extracts the contact can be indirect.

In the case of “clathrin heavy chain 1 (CLTC) (from UniProt Q00610 1-1675)”, the binding result was “no binding”.

The values above are taken from paper PMC8038998.
